Assay: GFR measurement with iomeprol clearance assessed by CT urography (CT-mGFR), living kidney donor candidates
Assay type: in vivo
Procedure: This is a cross-sectional study using data from kidney donor candidates who were screened in hospital between July 2016 and October 2022, with both GFR measurement by iohexol clearance, and kidney morphology assessment by CT urogaphy.
All living kidney donor candidates investigated in Nephrology Department between July 2016 and October 2022, were eligible for inclusion. In accordance with the KDIGO guidelines (Lentine K L et al. ([11])), GFR was measured in all these individuals from iohexol clearance. […] The CT urography had to include 4 polychromatic acquisition phases (unenhanced, arterial, nephrographic, and excretory phases) with a monophasic injection of iomeprol at 350 or 400 mg of iodine per milliliter (Iomeron® 350 or 400, Bracco Imaging, Milano, Italy).
CT-mGFR was assessed by the same U×V/P calculation used to determine the urinary clearance of iohexol: the amount of iomeprol excreted through the urinary system during a given period of time was divided by the mean serum iomeprol concentration during the same period. The blood and urine concentration of iomeprol were assessed by attenuation measurement (Hounsfield Units, HU) in the different areas of interest. The time periods were derived from the acquisition time of the different phases. […] Manual segmentations of bladder, upper urinary tracts and kidneys were performed using the Advantage Windows software (Advantage Window v4.7; GE Healthcare, Buc, France), using different thresholds depending on the CT phase and then manually finalized. For non-contrast and portal venous phase: only a lower limit was set to 0 HU, in order to exclude fat pixels. For excretory phases: a specific threshold was adapted for each patient based on visual analysis in order to reduce extra-urinary pixels as much as possible. Also, the lower threshold used for upper excretory tract was used as the higher threshold for kidney segmentation to avoid overlap in segmentations. The urinary excretion rate of iomeprol between arterial and excretory phases (U×V, expressed as HU/min) was calculated from urinary excretion of iomeprol into the bladder (Uexcr-Bladder), urinary excretion of iomeprol into the upper excretory tract (calyces, pelvis, ureters) (Uexcr-tract), and urinary excretion of iomeprol into the kidney tubules (Uexcr-tubules): U×V=Uexcr-Bladder+Uexcr-tract+Uexcr-tubules. Uexcr-bladder was the volume of the bladder at the excretory phase (Bladder-Volume) multiplied by the mean CT-attenuation of the bladder at the excretory phase (HU-Bladder-excr) minus the CT-attenuation of the urine in bladder at the unenhanced phase (HU-Bladder-unenhanced), then divided by the time period between the excretory phase and the arterial phase (time period): Uexcr-Bladder=Bladder-volume×(HU-Bladder-excr−HU-Bladder-unenhanced)/time period. When the bladder was not included on the unenhanced phase, urine CT-attenuation could be measured on the nephrographic phase, the urine density at the nephrographic phase being slightly higher than at the unenhanced phase, but without clinical consequence on the CT-mGFR calculation. Uexcr-tract was determined in the same way by studying the upper excretory tract (calyces, pelvis, ureters) instead of the bladder. […] The denominator of the U×V/P equation, was the calculated serum iomeprol concentration at the midpoint of the period between the arterial and excretory phases. […]

## CN(C(=O)CO)c1c(I)c(C(=O)NCC(O)CO)c(I)c(C(=O)NCC(O)CO)c1I (centres unmarked) [iomeprol]
Mean ± SD
  CT-attenuation value of the aorta at the arterial phase: 311.2 ± 83.0 HU
Median [IQR]
  CT-attenuation value of the bladder at the excretory phase: 363.6 HU
Vs iohexol clearance, 95% CI (0.653; 0.845)
  Lin's CCC, CT-mGFR vs mGFR: 0.766
Vs iohexol clearance, 95% CI (−1.9; 4.1)
  Absolute bias, mean, CT-mGFR vs mGFR: 1.1 ml/min/1.73 m2
Vs iohexol clearance, [−6.6, 9.6]
  IQR of the bias [Q1; Q3], CT-mGFR vs mGFR: 16.2 ml/min/1.73 m2
